# Where a name gives a salt, the structure may show the parent alone. ± gives the standard deviation of the averaged measurements. The entries are a selection whose mix differs from that of the whole data set. Repeats in this data set agree poorly, so a single value says little. Numbered stars: 1 amine (or outer) side, 2 acyl side, 3 side chain; on linkers, the order of the positions; unused ones are H or OH. Bridge positions count the residues as written; N and C are the ends. Square brackets hold non-standard residues; d marks the D form. Peptide text beside a SMILES is read from it. * marks the point of attachment. X1 = NC1=N[C@@H]([C@H](N[*:1])C(=O)[*:2])C[C@H](O)N1; ΔAla(Z-3-ureido) = NC(=O)N/C=C(\N)C(=O)O; β3hOrn = NCCC[C@H](N)CC(=O)*; Dap = NC[C@H](N)C(=O)O
# Test system: FaDu
# Experiment: mitochondrial oxygen consumption rate normalised to cell number, Z score over the library; higher = higher oxygen consumption (negative = OCR reduction)
# Conditions: treatment time 24 h, assay medium: 5 mM galactose, 5 mM pyruvate, 4 mM glutamine
# Description: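 Primary screen: FaDu cells were incubated 24 h with Pharmakon 1600 / TDI oncology set compounds at 2 or 10 uM. Mitochondrial-specific OCR (basal minus 2 uM antimycin A) was measured on a Seahorse XF96 in assay medium with 5 mM galactose, 5 mM pyruvate and 4 mM glutamine, then corrected for Hoechst cell number and expressed as a Z score […]. Compounds that cut cell number by >66% were excluded. Two repeats.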
Compound,mitochondrial oxygen consumption rate normalised (2 µM),mitochondrial oxygen consumption rate normalised (10 µM)
O=C1[C@H](CC[C@H](O)c2ccc(F)cc2)[C@@H](c2ccc(O)cc2)N1c1ccc(F)cc1,0.0988 ± 1.1,–
O=S(=O)(O)c1cc(I)c(O)c2ncccc12,0.858 ± 0.27,–
Cc1cnc(C(=O)NCCc2ccc(S(=O)(=O)NC(=O)NC3CCCCC3)cc2)cn1,0.308 ± 0.75,–
O=C(O)COCCN1CCN([C@H](c2ccccc2)c2ccc(Cl)cc2)CC1,-0.0896 ± 1,–
CC(O)(P(=O)(O)O)P(=O)(O)O,-0.749 ± 0.79,–
CCC1NC(=O)c2cc(S(N)(=O)=O)c(Cl)cc2N1 (stereo unspecified),0.867 ± 1.9,–
CCCCCOC(=O)Nc1nc(=O)n([C@@H]2O[C@H](C)[C@@H](O)[C@H]2O)cc1F,0.182 ± 0.33,–
CCCCCOC(=O)Nc1nc(=O)n([C@@H]2O[C@H](C)[C@@H](O)[C@H]2O)cc1F [Capecitabine],0.441 ± 0.042,–
CCCCNc1ccc(C(=O)OCCN(C)C)cc1,-1 ± 0.02,–
CCN(CC)CCOc1ccc(C(=C(Cl)c2ccccc2)c2ccccc2)cc1,-0.21 ± 0.8,–
CN1CCC(=C2c3ccccc3CCc3sccc32)CC1,0.188 ± 0.86,–
CN1CCOC(c2ccccc2)c2ccccc2C1 (stereo unspecified),0.225 ± 0.21,–
Cc1ncc(COP(=O)([O-])[O-])c(CN(CCN(CC(=O)O)Cc2c(COP(=O)([O-])O)cnc(C)c2O)CC(=O)O)c1O.[Mn].[Na+].[Na+].[Na+],0.623 ± 1.7,0.342 ± 0.21
CC1CCCC(C)N1 (stereo unspecified),0.984 ± 0.61,–
CC1=C(C/C=C(\C)CCC[C@H](C)CCC[C@H](C)CCCC(C)C)C(=O)c2ccccc2C1=O,1.21 ± 0.93,–
O=C(O)C1(C(=O)O)CCC1.[NH2-].[NH2-].[Pt+2] [Carboplatin],0.984 ± 0.17,–
O=C(O)C1(C(=O)O)CCC1.[NH2-].[NH2-].[Pt+2],0.296 ± 1.2,–
Cc1cnc(C(=O)O)c[n+]1[O-],0.0995 ± 0.68,–
CC(=O)Nc1cccc(O)c1,-0.934 ± 0.58,–
CC(C)Cc1ccc(C(C)C(=O)O)cc1 (stereo unspecified),-0.554 ± 0.21,–
COc1ccc(CN2CCN(C(c3ccc(F)cc3)c3ccc(F)cc3)CC2)c(OC)c1OC,-0.218 ± 0.43,–
OCc1ccccn1,0.881 ± 0.86,–

# Rewritten tab-delimited: entries from further up.
Compound	mitochondrial oxygen consumption rate normalised (2 µM)	mitochondrial oxygen consumption rate normalised (10 µM)
O=S(=O)(O)c1cc(I)c(O)c2ncccc12	0.858 ± 0.27	–
O=C(O)COCCN1CCN([C@H](c2ccccc2)c2ccc(Cl)cc2)CC1	-0.0896 ± 1	–
CC(O)(P(=O)(O)O)P(=O)(O)O	-0.749 ± 0.79	–
COc1ccc(CN2CCN(C(c3ccc(F)cc3)c3ccc(F)cc3)CC2)c(OC)c1OC	-0.218 ± 0.43	–
OCc1ccccn1	0.881 ± 0.86	–

# (cont.)

Compound,mitochondrial oxygen consumption rate normalised (2 µM),mitochondrial oxygen consumption rate normalised (10 µM)
COCCc1ccc(OCC(O)CNC(C)C)cc1 (stereo unspecified),0.119 ± 1.1,–
Nc1nc2[nH]cc(CCc3ccc(C(=O)N[C@@H](CCC(=O)O)C(=O)O)cc3)c2c(=O)[nH]1,1.43 ± 0.64,–
Nc1nc2[nH]cc(CCc3ccc(C(=O)N[C@@H](CCC(=O)O)C(=O)O)cc3)c2c(=O)[nH]1 [Pemetrexed Disodium],3.47 ± 0.091,–
CC(C)(C)NC[C@H](O)COc1ccccc1C1CCCC1,-0.562 ± 0.94,–
COc1ccc(C(=O)c2ccccc2O)c(O)c1,-0.212 ± 1.1,–
COc1cc2ncnc(Nc3ccc(F)c(Cl)c3)c2cc1OCCCN1CCOCC1 [Gefitinib],0.667 ± 0.083,–
CCOc1ccc(NC(C)=O)cc1,1.14 ± 0.2,–
CN1CCC[C@@H]1CCO[C@](C)(c1ccccc1)c1ccc(Cl)cc1,0.118 ± 0.66,–
O=C(O)c1ccccc1,-0.0241 ± 0.24,–
CC(C)(C)CC(=O)OCC(=O)[C@@]1(O)CC[C@H]2[C@@H]3CCC4=CC(=O)C=C[C@]4(C)[C@H]3[C@@H](O)C[C@@]21C,0.74 ± 0.54,-0.63 ± 0.68
CC(=O)Nc1ccc(C(=O)O)cc1,-0.295 ± 0.4,–
CC/C(=C(\c1ccccc1)c1ccc(OCCN(C)C)cc1)c1ccccc1,-1.048 ± 0.0076,–
CC/C(=C(\c1ccccc1)c1ccc(OCCN(C)C)cc1)c1ccccc1 [Tamoxifen Citrate],0.936 ± 0.59,–
CCc1oc2ccccc2c1C(=O)c1cc(Br)c(O)c(Br)c1,0.521 ± 1.2,–
NCc1ccc(S(N)(=O)=O)cc1,0.532 ± 0.2,–
CN[C@@H]1[C@H](O[C@H]2[C@H](O[C@H]3[C@H](O)[C@@H](O)[C@H](NC(=N)N)[C@@H](O)[C@@H]3NC(=N)N)O[C@@H](C)[C@]2(O)CO)O[C@@H](CO)[C@H](O)[C@H]1O,0.414 ± 1.3,–
CCOC(=O)[N-]c1c[n+](N2CCOCC2)no1,-0.393 ± 1.1,–
CC[N+](CC)(CC)CCOc1cccc(OCC[N+](CC)(CC)CC)c1OCC[N+](CC)(CC)CC,-0.836 ± 0.25,–
CC(C)(C)NCC(O)c1cc(O)cc(O)c1 (stereo unspecified),-0.72 ± 0.075,–
C#C[C@]1(O)CC[C@H]2[C@@H]3CCC4=C(CCC(=O)C4)[C@H]3CC[C@@]21C,0.0166 ± 0.24,–
Cc1cc2nc3c(=O)[nH]c(=O)nc-3n(CC(O)C(O)C(O)COP(=O)(O)O)c2cc1C (stereo unspecified),0.0399 ± 1.8,–
O=C(O)CSCC(=O)NC1CCSC1=O (stereo unspecified),0.505 ± 0.68,–

Compound,mitochondrial oxygen consumption rate normalised (2 µM),mitochondrial oxygen consumption rate normalised (10 µM)
NCC[C@H](O)C(=O)N[C@@H]1C[C@H](N)[C@@H](O[C@H]2O[C@H](CN)[C@@H](O)[C@H](O)[C@H]2O)[C@H](O)[C@H]1O[C@H]1O[C@H](CO)[C@@H](O)[C@H](N)[C@H]1O,0.48 ± 0.86,–
NCCC[C@H](N)CC(=O)N[C@H]1CNC(=O)[C@H]([C@H]2C[C@H](O)NC(N)=N2)NC(=O)/C(=C/NC(N)=O)NC(=O)[C@H](CO)NC(=O)[C@H](CO)NC1=O (β3hOrn-[Dap]SS[ΔAla(Z-3-ureido)][X1]; lactam 1-C),0.286 ± 0.044,–
C[C@H]1COc2c(N3CCN(C)CC3)c(F)cc3c(=O)c(C(=O)O)cn1c23,-0.424 ± 0.51,–
CN(C)CCCN1c2ccccc2CCc2ccccc21,-1.25 ± 0.2,–
NC(CO)C(=O)NNCc1ccc(O)c(O)c1O (stereo unspecified),-0.338 ± 0.66,–
Fc1ccc([C@@H]2CCNC[C@H]2COc2ccc3c(c2)OCO3)cc1,0.699 ± 0.65,–
CN(C/C=C/C#CC(C)(C)C)Cc1cccc2ccccc12,-0.627 ± 0.35,–
C[N+](C)(C)CCO.[Cl-],-0.242 ± 0.44,–
O=C(Oc1cccc2cccnc12)c1ccccc1,-0.518 ± 1.2,–
CN1CCC(OC(c2ccccc2)c2ccccc2)CC1,-1.19 ± 0.65,–
COC(=O)C1=C(C)NC(C)=C(C(=O)OC(C)C)C1c1cccc2nonc12 (stereo unspecified),0.422 ± 0.51,–
CC(=O)SCC(Cc1ccccc1)C(=O)NCC(=O)OCc1ccccc1 (stereo unspecified),0.992 ± 1.2,–
CC1COc2c(N3CCN(C)CC3)c(F)cc3c(=O)c(C(=O)O)cn1c23 (stereo unspecified),1.27 ± 0.019,–
CN1CCN(c2cc3c(cc2F)c(=O)c(C(=O)O)cn3-c2ccc(F)cc2)CC1,-0.0387 ± 1.1,–
O=C(O)CCCC[C@@H]1SC[C@@H]2NC(=O)N[C@@H]21,0.535 ± 0.21,–
CC(C)C(=O)Nc1ccc([N+](=O)[O-])c(C(F)(F)F)c1,1.33 ± 0.8,–
Cn1cnc([N+](=O)[O-])c1Sc1ncnc2[nH]cnc12,-0.338 ± 0.14,–
CC(=O)Oc1cc2c(s1)CCN(C(C(=O)C1CC1)c1ccccc1F)C2 (stereo unspecified),0.0315 ± 0.58,–
OCCN1C[C@H](O)[C@@H](O)[C@H](O)[C@H]1CO,-0.643 ± 0.98,–
CC(=O)OCC[N+](C)(C)C,0.593 ± 0.51,–
